For some of these results: No signal at the amounts used counts as a negative. For some of these results: The exact form of at least one protein or probe is not confirmed.

Chains of the proteins cited; added tags and fusions are not shown. Residues count along the entry.
UniProt P01137, 279-390: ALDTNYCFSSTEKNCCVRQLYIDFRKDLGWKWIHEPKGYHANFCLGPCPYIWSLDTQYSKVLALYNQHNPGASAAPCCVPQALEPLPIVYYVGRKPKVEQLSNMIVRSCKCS

Data set [1] addresses T1, TGF-beta-1 (TGF-β1 homodimer) (Homo sapiens?) (UniProt P01137). In words: SELEX. The settings on record: PS at dA and dC, purified recombinant protein, protein details: PeproTech (Rocky Hill, NJ), single-stranded DNA.
In data set [2] the target is T1, TGF-beta-1 (TGF-β1 homodimer). Kind of data set: EMSA. Particulars: PS at dA and dC; monomer band negligible decrease up to 625 nM; purified recombinant protein; protein details: PeproTech (Rocky Hill, NJ); label: 3' biotin; single-stranded DNA. (In EMSA bound probe runs differently from free probe, usually more slowly.)

With “CAGTCCGGATGCTCTAGAGTGACTGGAGGTGCCTGGATATATCGACTCGACCCCGAATCTCGTGAAGCCGAGCG [T18_1_9 family (15 of 42 round 18 clones)]”, the selection result in data set [1] was “selected”.
As to “CAGTCCGGATGCTCTAGAGTGACTGTCGTTGTGTCCTGTACCCGCCTTGACCACGAATCTCGTGAAGCCGAGCG [T18_1_3 family (11 of 42 round 18 clones)]”, the selection result in data set [1] (second dominant clone after 18 rounds of filter selection in PBS, individual affinity not measured) was “selected”.
As for “CAGTCCGGATGCTCTAGAGTGACGGTGAGGGTACATGTACACATCGACTCACACGAATCTCGTGAAGCCGAGCG [T5_14 monomeric form, bottom band]”, the binding result in data set [2] was “no binding”.
As to “CAGTCCGGATGCTCTAGAGTGACGTGAAAGTGCAATGGATCCAGGACCCCACACGAATCTCGTGAAGCCGAGCG [T9_5 monomeric form, bottom band]”, the binding result in data set [2] is recorded as “no binding”.
